Values from PubChem BioAssay AID504804 (Drosophila RNAi Screening Center, 2011)

- Test: 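dsRNAs that improve Kc cell survival under doxorubicin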 (primary screen)
- System: Drosophila Kc cells
- Knock-down reagent: long dsRNA against Drosophila genes, 0.5 µg dsRNA per well
- Time to read-out: 96 h (48 h knock-down, then 48 h drug)
- Treatment: doxorubicin 5 µg/ml for 48 h, added 48 h after dsRNA
- Detection: 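Luminescent ATP counts per replicate, not normalised, reflecting viable cells after 48 h dsRNA knock-down followed by 48 h of 5 µg/ml doxorubicin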
- Direction: raw ATP luminescence: higher = more viable cells, protection from doxorubicin
- Active means: 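z-score of 2 or more over plate mean in both duplicates, retained only when retests and separate dsRNAs confirm the protection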
The deposit covers about 19,000 reagents; this is a random part of those that have a named target and a result. In the full data, 47 (0.25%) got an active call. 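Signals are raw, not normalised; exact z-scores behind calls not deposited; actives needed confirmation, so some wells reaching 2 SD are inactive.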 The numbers tell different reagents against one gene apart. A plus sign joins genes that one reagent is predicted to hit.

The first 7 records, ahead of the listing:
gene knocked down | dsRNA no. | SD above plate mean | raw ATP luminescence, replicate 1 | raw ATP luminescence, replicate 2 | Call
ReepA | 1 | – | 70870 | 50080 | inactive
drd | 1 | – | 3.31e5 | 3.39e5 | inactive
CG15260 | 1 | – | 72770 | 70087 | inactive
plh | 1 | – | 46703 | 38000 | inactive
CG7497 | 1 | – | 35903 | 30053 | inactive
CG12491 + CG34105 | 1 | – | 96130 | 1.12e5 | inactive
CG12491 + CG34105 | 2 | – | 50673 | 45267 | inactive

Main list, from the first entry:
gene knocked down | dsRNA no. | SD above plate mean | raw ATP luminescence, replicate 1 | raw ATP luminescence, replicate 2 | Call
ReepA | 1 | – | 70870 | 50080 | inactive
drd | 1 | – | 3.31e5 | 3.39e5 | inactive
CG15260 | 1 | – | 72770 | 70087 | inactive
plh | 1 | – | 46703 | 38000 | inactive
CG7497 | 1 | – | 35903 | 30053 | inactive
CG12491 + CG34105 | 1 | – | 96130 | 1.12e5 | inactive
CG12491 + CG34105 | 2 | – | 50673 | 45267 | inactive
CYTB (retired record) | 1 | – | 2.18e5 | 2.21e5 | inactive
QIL1 | 1 | – | 69617 | 59030 | inactive
CG32260 | 1 | – | 1.72e5 | 1.26e5 | inactive
CG14252 | 1 | – | 57990 | 40910 | inactive
Osi15 | 1 | – | 76200 | 50280 | inactive
CG34286 | 1 | – | 2.42e5 | 2.68e5 | inactive
RhoGEF2 | 1 | – | 61617 | 75740 | inactive
CG7656 | 1 | – | 20863 | 25273 | inactive
Cyp6a2 | 1 | – | 56503 | 90600 | inactive
Alp11 | 1 | – | 3.80e5 | 3.04e5 | inactive
Rcd4 | 1 | – | 40533 | 50263 | inactive
CG14455 | 1 | – | 64127 | 52107 | inactive
tamo | 1 | – | 68813 | 57690 | inactive
toc | 1 | – | 3.20e5 | 2.69e5 | inactive
toc | 2 | – | 2.71e5 | 2.82e5 | inactive
toc | 3 | – | 1.19e5 | 71587 | inactive
CG18449 | 1 | – | 61800 | 82573 | inactive
I-t | 1 | – | 47767 | 63140 | inactive
CG10182 | 1 | – | 69670 | 53330 | inactive
Rexo5 | 1 | – | 76350 | 75733 | inactive
CG40005 (retired record) + cta | 1 | – | 89187 | 73577 | inactive
PsGEF | 1 | – | 38150 | 44020 | inactive
Sgs4 | 1 | – | 49600 | 77190 | inactive
CG5122 | 1 | – | 68893 | 92733 | inactive
CG2201 | 1 | – | 60677 | 65863 | inactive
Ror | 1 | – | 51263 | 92923 | inactive
Pax | 1 | – | 3.16e5 | 2.51e5 | inactive
Pax | 2 | 2 to 3 SD above plate mean | 1.41e5 | 1.19e5 | active
Pax | 3 | – | 66777 | 65597 | inactive
fw | 1 | – | 3.55e5 | 3.41e5 | inactive
Arr1 | 1 | – | 66560 | 1.06e5 | inactive
CG3527 | 1 | – | 38640 | 46850 | inactive
stj | 1 | – | 46747 | 44460 | inactive
CG13082 | 1 | – | 46080 | 48180 | inactive
blanks | 1 | – | 70973 | 62517 | inactive
sws | 1 | – | 2.15e5 | 2.42e5 | inactive
Mal-A4 | 1 | – | 40250 | 78600 | inactive
Or9a | 1 | – | 2.85e5 | 3.10e5 | inactive
CG3841 | 1 | – | 40660 | 83813 | inactive
Tep5Psi | 1 | – | 52907 | 55993 | inactive
Tep5Psi | 2 | – | 50927 | 47950 | inactive
CG7523 | 1 | – | 36667 | 38797 | inactive
dysc | 1 | – | 58493 | 56980 | inactive
dysc | 2 | – | 64933 | 50743 | inactive
scaf | 1 | – | 62367 | 60187 | inactive
CG32073 | 1 | – | 2.05e5 | 1.37e5 | inactive
CG32073 | 2 | – | 85700 | 66013 | inactive
CG11334 | 1 | – | 2.19e5 | 2.14e5 | inactive
CG11334 | 2 | – | 55640 | 60580 | inactive
CG6495 | 1 | – | 69403 | 56890 | inactive
yem | 1 | – | 52780 | 45140 | inactive
yem | 2 | – | 55640 | 50580 | inactive
CG5853 | 1 | – | 2.80e5 | 2.64e5 | inactive
CG5853 | 2 | – | 82790 | 57940 | inactive
CG6830 | 1 | – | 55827 | 50710 | inactive
dpn | 1 | – | 50843 | 69150 | inactive
FAM21 | 1 | – | 54570 | 57060 | inactive
CG11227 | 1 | – | 3.03e5 | 3.14e5 | inactive
Lgr1 | 1 | – | 46630 | 37750 | inactive
Dtwd2 | 1 | – | 76063 | 58927 | inactive
Mdh2 (retired record) | 1 | – | 65250 | 82100 | inactive
5-HT2A | 1 | – | 18267 | 23867 | inactive
CG10041 | 1 | – | 57540 | 57983 | inactive
CG5768 | 1 | – | 46313 | 56197 | inactive
Lerp | 1 | – | 41720 | 43080 | inactive
Lerp | 2 | – | 58970 | 57150 | inactive
Lerp | 3 | – | 75850 | 51890 | inactive
Lerp | 4 | – | 54320 | 47200 | inactive
Smyd4-4 | 1 | – | 59390 | 44930 | inactive
Or85f | 1 | – | 52977 | 47830 | inactive
Nrx-1 | 1 | – | 30277 | 37547 | inactive
CG3842 | 1 | – | 35910 | 42830 | inactive
Pask | 1 | – | 77673 | 74513 | inactive
per | 1 | – | 49160 | 61620 | inactive
cv-c | 1 | – | 70260 | 61400 | inactive
cv-c | 2 | – | 70650 | 69600 | inactive
cv-c | 3 | – | 32420 | 28660 | inactive
cv-c | 4 | – | 81270 | 59830 | inactive
cv-c | 5 | – | 35800 | 29450 | inactive
cv-c | 6 | – | 62920 | 64570 | inactive
CG11586 | 1 | – | 35340 | 36617 | inactive
AOX4 | 1 | – | 74990 | 45850 | inactive
CG6931 | 1 | – | 38810 | 41540 | inactive
CG12224 | 1 | – | 46710 | 49760 | inactive
Eip75B | 1 | – | 16100 | 12143 | inactive
H15 | 1 | – | 27043 | 28930 | inactive
CG4476 | 1 | – | 64030 | 94527 | inactive
alpha-Est2 | 1 | – | 57197 | 59920 | inactive
l(3)neo38 | 1 | – | 48437 | 62390 | inactive
l(3)neo38 | 2 | – | 51047 | 51870 | inactive
Vm26Aa | 1 | – | 20280 | 29633 | inactive
RhoGDI | 1 | – | 21367 | 18640 | inactive
Atg16 | 1 | – | 69640 | 44960 | inactive
Atg16 | 2 | – | 78380 | 58700 | inactive
disp | 1 | – | 61153 | 59837 | inactive
CG8630 | 1 | – | 44220 | 38340 | inactive
CG2616 | 1 | – | 63090 | 68697 | inactive
Kap-alpha3 | 1 | – | 67987 | 53550 | inactive
Rab9 | 1 | – | 44883 | 47660 | inactive
CG5160 | 1 | – | 26983 | 21887 | inactive
